Paper PMC7181738

Chains of the proteins cited; added tags and fusions are not shown. Lines headed by an entry give the natural chain unless they say otherwise; changes in a name come on top. Residues count along the entry.
UniProt P36956: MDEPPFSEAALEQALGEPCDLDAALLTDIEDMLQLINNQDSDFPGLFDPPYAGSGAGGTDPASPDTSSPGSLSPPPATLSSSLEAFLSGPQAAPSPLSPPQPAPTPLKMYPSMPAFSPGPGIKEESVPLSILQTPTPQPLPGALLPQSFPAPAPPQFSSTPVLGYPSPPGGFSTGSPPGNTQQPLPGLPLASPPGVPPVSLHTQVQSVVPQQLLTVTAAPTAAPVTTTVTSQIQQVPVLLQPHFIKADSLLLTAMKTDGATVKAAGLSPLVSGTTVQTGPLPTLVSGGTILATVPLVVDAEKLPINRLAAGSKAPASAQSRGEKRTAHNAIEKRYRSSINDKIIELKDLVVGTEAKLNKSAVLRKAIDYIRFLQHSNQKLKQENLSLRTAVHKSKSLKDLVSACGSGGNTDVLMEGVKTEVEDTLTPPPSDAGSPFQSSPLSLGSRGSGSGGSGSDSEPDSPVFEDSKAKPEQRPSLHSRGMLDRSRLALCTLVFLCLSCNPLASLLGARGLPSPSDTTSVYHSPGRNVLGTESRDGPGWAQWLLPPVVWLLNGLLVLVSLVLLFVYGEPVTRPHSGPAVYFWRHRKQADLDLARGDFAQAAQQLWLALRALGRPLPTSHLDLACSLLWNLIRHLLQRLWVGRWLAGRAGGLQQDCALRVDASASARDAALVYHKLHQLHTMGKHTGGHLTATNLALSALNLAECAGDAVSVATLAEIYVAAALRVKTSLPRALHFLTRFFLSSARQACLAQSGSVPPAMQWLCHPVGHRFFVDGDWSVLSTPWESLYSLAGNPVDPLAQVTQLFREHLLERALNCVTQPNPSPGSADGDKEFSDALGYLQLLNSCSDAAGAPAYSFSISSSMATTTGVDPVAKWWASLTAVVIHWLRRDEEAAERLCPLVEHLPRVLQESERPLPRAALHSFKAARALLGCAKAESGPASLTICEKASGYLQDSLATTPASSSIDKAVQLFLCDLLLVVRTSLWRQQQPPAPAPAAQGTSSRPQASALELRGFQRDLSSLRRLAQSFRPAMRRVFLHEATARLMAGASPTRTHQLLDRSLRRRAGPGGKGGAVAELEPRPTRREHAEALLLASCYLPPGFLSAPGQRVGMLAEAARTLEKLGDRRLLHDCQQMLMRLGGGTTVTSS
UniProt P56720: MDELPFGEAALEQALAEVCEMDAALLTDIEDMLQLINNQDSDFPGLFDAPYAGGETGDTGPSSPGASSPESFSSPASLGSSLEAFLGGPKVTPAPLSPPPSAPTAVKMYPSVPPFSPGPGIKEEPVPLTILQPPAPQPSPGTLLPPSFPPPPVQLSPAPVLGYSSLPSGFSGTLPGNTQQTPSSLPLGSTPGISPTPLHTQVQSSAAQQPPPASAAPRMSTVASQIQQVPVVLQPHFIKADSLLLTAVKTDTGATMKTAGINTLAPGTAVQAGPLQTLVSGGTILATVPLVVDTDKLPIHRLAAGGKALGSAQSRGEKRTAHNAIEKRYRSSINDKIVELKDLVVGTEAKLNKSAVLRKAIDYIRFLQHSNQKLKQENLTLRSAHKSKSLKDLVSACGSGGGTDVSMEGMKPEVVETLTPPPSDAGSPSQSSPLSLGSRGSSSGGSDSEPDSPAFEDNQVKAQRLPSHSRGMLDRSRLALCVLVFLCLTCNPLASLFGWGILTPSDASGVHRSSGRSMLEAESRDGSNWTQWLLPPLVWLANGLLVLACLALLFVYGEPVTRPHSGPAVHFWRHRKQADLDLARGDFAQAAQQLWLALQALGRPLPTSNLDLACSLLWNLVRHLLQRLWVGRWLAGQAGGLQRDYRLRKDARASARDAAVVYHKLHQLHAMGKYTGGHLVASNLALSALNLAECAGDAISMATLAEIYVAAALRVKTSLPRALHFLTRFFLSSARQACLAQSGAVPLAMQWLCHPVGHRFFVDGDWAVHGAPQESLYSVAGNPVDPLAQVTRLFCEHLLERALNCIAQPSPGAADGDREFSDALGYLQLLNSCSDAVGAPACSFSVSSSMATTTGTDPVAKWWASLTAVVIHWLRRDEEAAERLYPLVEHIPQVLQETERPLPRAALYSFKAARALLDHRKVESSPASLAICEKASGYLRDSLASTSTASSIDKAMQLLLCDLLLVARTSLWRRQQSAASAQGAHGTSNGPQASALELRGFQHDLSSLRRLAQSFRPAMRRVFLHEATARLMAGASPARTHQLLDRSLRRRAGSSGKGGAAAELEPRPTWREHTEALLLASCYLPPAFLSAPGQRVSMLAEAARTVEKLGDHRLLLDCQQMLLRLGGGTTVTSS
UniProt Q15843, residues 1-76: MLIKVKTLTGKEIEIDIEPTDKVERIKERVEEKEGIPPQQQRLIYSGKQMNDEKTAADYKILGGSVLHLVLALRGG
UniProt Q00987: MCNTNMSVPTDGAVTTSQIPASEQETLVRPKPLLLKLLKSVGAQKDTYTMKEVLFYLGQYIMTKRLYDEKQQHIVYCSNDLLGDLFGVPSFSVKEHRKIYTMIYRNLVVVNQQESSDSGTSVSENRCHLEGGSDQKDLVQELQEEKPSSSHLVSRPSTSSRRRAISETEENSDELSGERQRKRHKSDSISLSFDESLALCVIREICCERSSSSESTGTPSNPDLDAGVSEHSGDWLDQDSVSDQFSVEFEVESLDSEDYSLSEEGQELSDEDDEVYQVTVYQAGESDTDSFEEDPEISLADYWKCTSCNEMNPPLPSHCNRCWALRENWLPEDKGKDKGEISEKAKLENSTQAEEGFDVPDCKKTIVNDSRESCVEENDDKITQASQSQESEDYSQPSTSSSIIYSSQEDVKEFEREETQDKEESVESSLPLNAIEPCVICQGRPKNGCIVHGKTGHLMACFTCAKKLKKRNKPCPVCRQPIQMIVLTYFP

Columns and labels:
[1] = target: sterol regulatory element-binding protein 1c (human (endogenous in HepG2)) (UniProt P36956); test: co-IP; endogenous proteins; HepG2 cells exposed to OA (500 μM) for 24 h; nuclear lysates immunoprecipitated by anti-SREBP1c antibody; immunoblotting
Flag-SREBP1c (rat) = Flag-SREBP1c (rat) (UniProt P56720); test: co-IP; HEK293 cells cotransfected with Flag-SREBP1c and HDM2 for 48 h; lysate with anti-Flag M2 affinity beads 16 h at 4 °C; eluted with 1× FLAG peptide; Western blotting
[2] = target: neural precursor cell-expressed, developmentally downregulated 8 (human (endogenous in HepG2)) (UniProt Q15843); test: co-IP; endogenous proteins; HepG2 cells treated with OA (500 μM) for 24 h; lysate (1.5 mg) with anti-NEDD8 (10 μg) at 4 °C overnight, Protein A/G Sepharose beads; Western blotting
[3] = target: neural precursor cell-expressed, developmentally downregulated 8 (human (endogenous in HepG2)) (UniProt Q15843); test: condition: only with an siRNA for the E1 enzyme APPBP1; co-IP; as a1, HepG2 cells treated with OA and an siRNA for the E1 enzyme APPBP1
[4] = target: neural precursor cell-expressed, developmentally downregulated 8 (human (endogenous in HepG2)) (UniProt Q15843); test: co-IP; as a1, HepG2 cells treated with OA and the neddylation inhibitor MLN4924

binding [1]: binds
Substance: human homolog of mouse double minute 2 (from UniProt Q00987 1-491)

binding (Flag-SREBP1c (rat)): binds
Substance: HDM2 (pcHDM2) (from UniProt Q00987 1-491)

binding [2]: binds
binding [3]: no binding
binding [4]: no binding (only with MLN4924)
Substance: sterol regulatory element-binding protein 1c (from UniProt P36956-3)

binding [1]: binds
Substance: neural precursor cell-expressed, developmentally downregulated 8 (from UniProt Q15843 1-76)

These are yes or no findings as the source states them, for the method shown. In cells and extracts the contact can be indirect. For part of these data: Binding can be weak; no strength is given. Each block holds one substance with its values, some of them ahead of it.
